# Reference: the supplement of paper PMC11546906
# Counter-ions that a name gives are not always drawn. This is one part of the list. Single values are uncertain here, since repeats match poorly.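 A screen tested FDA-approved drugs combined with one-eighth-MIC colistin against a clinical mcr-1-positive, multidrug-resistant E. coli isolate, measuring OD600 at 24 h. Controls were untreated bacteria (growth) and broth alone (blank). An OD600 under 0.2 marked a combination as active.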
# Test system: Escherichia coli 42 (mcr-1-positive clinical isolate)
# Assay: OD600 after 24 h growth with compound plus colistin (absorbance units (OD600)); higher = more bacterial growth (less inhibition)
# Conditions: first compound 25 µM; colistin concentration 0.5 ug/mL; incubation time 24 h; 37 °C
row,SMILES,OD600
1,CC(=O)O[C@H]1C(=O)[C@@]2(C)[C@H]([C@H](OC(=O)c3ccccc3)[C@]3(O)C[C@H](OC(=O)[C@H](O)[C@@H](NC(=O)c4ccccc4)c4ccccc4)C(C)=C1C3(C)C)[C@]1(OC(C)=O)CO[C@@H]1C[C@@H]2O [Paclitaxel] + CCC(C)CCCC(=O)N[C@@H](CCN)C(=O)N[C@H](C(=O)N[C@@H](CCN)C(=O)N[C@H]1CCNC(=O)[C@H]([C@@H](C)O)NC(=O)[C@H](CCN)NC(=O)[C@H](CCN)NC(=O)[C@H](CC(C)C)NC(=O)[C@@H](CC(C)C)NC(=O)[C@H](CCN)NC1=O)[C@@H](C)O [colistin],inactive: 0.937
2,CCOC(=O)[C@H](CCc1ccccc1)N[C@H]1CCc2ccccc2N(CC(=O)O)C1=O [Benazepril hydrochloride] + CCC(C)CCCC(=O)N[C@@H](CCN)C(=O)N[C@H](C(=O)N[C@@H](CCN)C(=O)N[C@H]1CCNC(=O)[C@H]([C@@H](C)O)NC(=O)[C@H](CCN)NC(=O)[C@H](CCN)NC(=O)[C@H](CC(C)C)NC(=O)[C@@H](CC(C)C)NC(=O)[C@H](CCN)NC1=O)[C@@H](C)O [colistin],inactive: 0.935
3,O=C(O)C1(C(=O)O)CCC1.[NH2-].[NH2-].[Pt+2] [Carboplatin] + CCC(C)CCCC(=O)N[C@@H](CCN)C(=O)N[C@H](C(=O)N[C@@H](CCN)C(=O)N[C@H]1CCNC(=O)[C@H]([C@@H](C)O)NC(=O)[C@H](CCN)NC(=O)[C@H](CCN)NC(=O)[C@H](CC(C)C)NC(=O)[C@@H](CC(C)C)NC(=O)[C@H](CCN)NC1=O)[C@@H](C)O [colistin],inactive: 1.1
